Out of some 390,000 compounds screened, about 610 (0.16%) were called active. The shares of active, inactive and inconclusive entries below differ from those in the screen. The call rests on the fitted dose curve; in most records, active means well fitted inhibition curve with a large enough effect; inconclusive means small, poorly fitted or top-dose-only effect, or effect the other way, or another doubt; inactive means no such curve, though single readings can be large or run the other way. Potencies of inconclusive entries are doubtful fits and often do not repeat.
Test: Nrf2 qHTS screen for inhibitors: counterscreen for cytotoxicity
Conditions: A549 ARE-Fluc cells, CellTiter-Fluor viability, 18-24 h; series mostly up to 46 µM
How it was run: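 A549 ARE_Fluc cells in 5% FBS OPTI-MEM were exposed to compounds in concentration-response for 18-24 h at 37 deg C. Viability was read by CellTiter-Fluor fluorescence (Ex 405/Em 525) after 30 min, before the luciferase read.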
Potency means the concentration at half of the fitted maximal effect.

| SMILES | Potency |
| --- | --- |
| Cc1cc2c(cc1C)CSC(c1ccccc1O)SC2 | inactive |
| Cc1ccc2nc(-c3cccc(-c4cccc(Cl)c4)c3)c(NCc3ccccc3)n2c1 | inconclusive: 23.1 µM [falling, partial curve, poor fit] |
| CCOc1cc(CN2CCN(C(=O)c3cccc4ccccc34)CC2)ccc1OC | inactive |
| COc1cc(OC)cc(C(=O)Nc2ccc(N3CCN(C(=O)c4cccs4)CC3)cc2)c1 | inconclusive: 25.9 µM [falling, partial curve, poor fit] |
| COc1ccc(OCc2ccc(-c3nc(C#N)c(NCc4ccccc4)o3)o2)cc1 | inconclusive: 0.058 µM [falling, partial curve, poor fit] |
| O=C(NN1C(=O)/C(=C/c2cccs2)SC1=S)c1cccnc1 | inconclusive: 23.1 µM [falling, partial curve] |
| COc1ccc(CCNc2cc(N3CCN(C(=O)c4ccccc4OC)CC3)ccc2[N+](=O)[O-])cc1OC | inconclusive: 29.1 µM [falling, partial curve, poor fit] |
| Cc1cccc(N2CC(C)Cn3c2nc2c3c(=O)[nH]c(=O)n2C)c1 (stereo unspecified) | inactive |
| CCOc1ccc(C2C(C(=O)OC)=C(C)NC3=C2C(=O)c2ccccc23)cc1OC (stereo unspecified) | inconclusive: 7.31 µM [falling, partial curve] |
| CC(Nc1nc(-c2ccc(F)cc2)cs1)c1nc2cc(Cl)c(N3CCCCC3)cc2n1CCCO (stereo unspecified) | inconclusive: 29.1 µM [falling, partial curve, poor fit] |
| O=C(C1=C(O)C(=O)N(c2ncccn2)C1c1cccs1)c1ccco1 (stereo unspecified) | inconclusive: 29.1 µM [falling, single point] |
| CC(=O)c1ccccc1OCC(O)CN1CCN(CCN2C(=O)c3cccc4cccc(c34)C2=O)CC1 (stereo unspecified) | inconclusive: 16.4 µM [falling, single point] |
| O=C(Nc1ccccc1C(=O)N1CCCCCC1)c1cccc([N+](=O)[O-])c1 | inconclusive: 29.1 µM [activator, partial curve, poor fit] |
| O=c1c2ccccc2nc(-c2ccc(Br)cc2)n1Cc1ccccc1 | inconclusive: 29.1 µM [falling, single point] |
| COc1cc(/C=C(/C(=O)c2cccs2)c2nc3ccccc3[nH]2)cc(OC)c1O | inconclusive: 23.1 µM [falling, single point] |
| Cc1cc(COc2ccccc2)oc1C(=O)O | inactive |
| O=C(Nc1nc(-c2ccccn2)cs1)c1ccc(-c2ccccc2F)o1 | inconclusive: 20.6 µM [falling, single point] |
| CCOC(=O)c1c(C)oc2c1c(C=NCc1ccccn1)c(O)c1ccccc12 | inconclusive: 16.4 µM [falling, partial curve] |
| COc1cccc(/C=C2\CCc3ccccc3C2=O)c1 | inactive |
| O=C(Nc1ccc(Br)c2ccccc12)c1ccc2ccccc2c1O | inconclusive: 29.1 µM [falling, single point] |
| Cc1ccc(C2Oc3ccccc3C3=C2C(c2cccs2)n2ncnc2N3)cc1 (stereo unspecified) | inconclusive: 23.1 µM [falling, single point] |
| CC(CCc1ccccc1)NC(=O)Cn1c(=O)nc(-c2ccccc2F)c2cc(Cl)ccc21 (stereo unspecified) | inconclusive: 20.6 µM [falling, single point] |

| SMILES | Potency |
| --- | --- |
| CN1c2ccccc2-c2nc3ccccc3n2C1c1cccs1 (stereo unspecified) | inconclusive: 32.6 µM [falling, single point] |
| O=C(CSc1nccn1-c1ccc(Cl)cc1)Nc1cccc2ccccc12 | inactive |
| CC(C)(C)c1ccc(C2=CC(c3ccccc3F)n3ncnc3N2)cc1 (stereo unspecified) | inconclusive: 29.1 µM [activator, partial curve, poor fit] |
| CCOC(=O)Cn1c(=O)n(C2CCCCC2)c2nc(-c3ccc(OCC)cc3)nc(C(N)=O)c21 | inactive |
| COc1ccc(CCNC2CC(=O)N(CCc3ccccc3)C2=O)cc1 (stereo unspecified) | inactive |
| Nc1c(/C=C2/C=CC(=O)C(O)=C2)c(=O)nc2sc(CC(=O)N3CCCC3)nn12 | inconclusive: 13 µM [falling, partial curve, poor fit] |
| CN(C)/C=N/C1=C(C#N)C(c2cccs2)c2ccc3ccccc3c2O1 (stereo unspecified) | inconclusive: 8.2 µM [falling, partial curve] |
| Cc1nc(SCC(N)=O)c([N+](=O)[O-])[nH]1 | inconclusive: 14.6 µM [falling, partial curve, poor fit] |
| NS(=O)(=O)c1ccc(N=Nc2ccc(=O)[nH]c2O)cc1 | inconclusive: 20.6 µM [falling, single point] |
| CC1(C)CC(=O)C=C(c2cccc(O)c2)C1=O | inactive |
| Cc1cccn2c(=O)c3cc(C(=O)NCc4cccnc4)c(=N)n(CC4CCCO4)c3nc12 (stereo unspecified) | inconclusive: 23.1 µM [activator, single point] |
| CCCN1CCC(NCC(C)c2ccccc2)CC1 (stereo unspecified) | inconclusive: 5.8 µM [falling, full curve, poor fit] |
| CCn1c(C)cs/c1=N\S(=O)(=O)c1ccccc1 | inconclusive: 0.326 µM [activator, full curve, poor fit] |
| CCN(CC)CCNCC1C(=O)O[C@@H]2C[C@@]3(C)CCC[C@H](C)C3=C[C@H]12 (stereo partly specified) | inactive |
| N#Cc1nc(Nc2cccc(F)c2)nc(NC2CCCC2)n1 | inconclusive: 29.1 µM [falling, single point] |
| O=C(O)c1ccc(N/N=C/c2ccnc3ccccc23)cc1 | inconclusive: 25.9 µM [falling, single point] |
| COc1ccc(CNC(=O)CSc2nnc(C)s2)cc1 | inconclusive: 29.1 µM [activator, partial curve, poor fit] |
| CC(=O)N=c1nc(-c2ccccc2)n(-c2ccccc2)s1 | inactive |
| C[n+]1ccccc1/C=C/c1ccc2ncccc2c1 | inconclusive: 13 µM [falling, partial curve, poor fit] |
| CCOc1ccc(S(=O)(=O)N2CCN=C2c2ccccc2)cc1 | inconclusive: 18.4 µM [falling, partial curve, poor fit] |
| COc1ccc(C(=O)N(Cc2cc(OC)c(OC)c(OC)c2)c2ccccn2)cc1 | inactive |
| COc1cc(-c2cc(C(=O)N3CCCCCC3)c3ccccc3n2)cc(OC)c1OC | inconclusive: 29.1 µM [falling, single point] |

| SMILES | Potency |
| --- | --- |
| CCOC(=O)C1(Cc2cccc(Cl)c2)CCCN(C(=O)c2cnn(CC)c2)C1 (stereo unspecified) | inactive |
| CCCCNC(=O)Cn1c(=O)n(C)c2ccccc21 | inactive |
| CN(C)c1ccc(/C=C/c2nc3ccccc3s2)cc1 | inactive |
| O=C([O-])c1ccccc1-[n+]1c(-c2ccccc2)cc(-c2ccccc2)cc1-c1ccccc1 | inactive |
| CCOc1cc(/C=N/NC(=O)CN2CCOCC2)ccc1OCc1ccccc1 | inconclusive: 32.6 µM [activator, partial curve, poor fit] |
| COc1ccc(OC)c(-c2cc(C(=O)Nc3c(C)n(C)n(-c4ccccc4)c3=O)no2)c1 | inconclusive: 3.66 µM [falling, partial curve, poor fit] |
| COc1ccc(CNC(=O)c2ccc(Cl)c(S(=O)(=O)N3CCOCC3)c2)cc1OC | inconclusive: 10.3 µM [falling, partial curve, poor fit] |
| CCn1c(CNc2ccccc2Cl)nnc1SCCN1CCCCC1 | inconclusive: 7.31 µM [activator, partial curve, poor fit] |
| COc1cc2[nH]c(=O)n(CCCCCC(=O)N3CCN(c4ccccn4)CC3)c(=O)c2cc1OC | inconclusive: 14.6 µM [activator, partial curve, poor fit] |
| Nc1ccc(C(=O)C(=O)c2ccc(N)cc2)cc1 | inactive |
| CC(=O)c1c(C)[nH]c(C(=O)N2CCN(c3cc(Cl)ccc3C)CC2)c1C | inconclusive: 29.1 µM [falling, single point] |
| CCOc1cc(/C=C2\SC(=S)N(C(C(=O)O)c3ccccc3)C2=O)ccc1O (stereo unspecified) | inconclusive: 20.6 µM [falling, single point] |
| O=c1cc(C(F)(F)F)[nH]c2ccc(C(F)(F)F)cc12 | inconclusive: 29.1 µM [falling, single point] |
| COc1ccccc1Cn1cc(C(=O)c2ccc(Cl)cc2)c(=O)c2ccccc21 | inconclusive: 18.4 µM [falling, single point] |
| CCn1ccc2cc(S(=O)(=O)N3CCC(C(=O)NCCc4ccccc4Cl)CC3)ccc21 | inactive |
| CC(C)OCCCNC(=O)c1cn(C)c2ccc(S(=O)(=O)N3CCCCCC3)cc2c1=O | inconclusive: 3.26 µM [activator, single point] |
| COc1cccc(CC2(CO)CCCN(Cc3[nH]c4ccc(C)cc4c3C)C2)c1 (stereo unspecified) | inconclusive: 29.1 µM [falling, single point] |
| COc1ccc(NC(=O)c2sc3ncnc(N4CCN(c5ccccn5)CC4)c3c2C)cc1Cl | inconclusive: 11.6 µM [falling, partial curve, poor fit] |
| Clc1ccc2c(c1)C(N1CCNCC1)=Nc1ccccc1O2 | inconclusive: 29.1 µM [falling, single point] |
| CCOCc1c(C(=O)OCC(=O)Nc2ccccc2C(N)=O)oc2ccccc12 | inconclusive: 29.1 µM [activator, partial curve, poor fit] |
| NS(=O)(=O)c1cccc(NC(=O)COc2ccc([N+](=O)[O-])cc2)c1 | inactive |
| CC1=CC(=O)N(c2cccc(C(F)(F)F)c2)C1c1ccc(Cl)cc1 (stereo unspecified) | inconclusive: 13 µM [falling, partial curve, poor fit] |

An excerpt of these results, as labelled records:
CCn1ccc2cc(S(=O)(=O)N3CCC(C(=O)NCCc4ccccc4Cl)CC3)ccc21
  Potency: inactive
CC(C)OCCCNC(=O)c1cn(C)c2ccc(S(=O)(=O)N3CCCCCC3)cc2c1=O
  Potency: inconclusive: 3.26 µM [activator, single point]
